As usually defined, the Kd is a measure of binding affinity in units of concentration. The low end stands for higher affinity, the high end for lower affinity.

Chains of the proteins cited; added tags and fusions are not shown. Residues count along the entry.
UniProt P01127, 82-190: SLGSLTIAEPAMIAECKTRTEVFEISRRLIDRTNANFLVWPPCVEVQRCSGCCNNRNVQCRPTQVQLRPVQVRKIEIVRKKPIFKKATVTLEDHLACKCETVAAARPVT

In the data set the target is PDGF-BB (platelet-derived growth factor BB) (UniProt P01127). Briefly: filter binding. To be noted: PDGF-BB and ApoE: PBS pH 7.4, 1 mM MgCl2, 0.025% Tween 20; thrombin: 50 mM Tris pH 7.5, 100 mM NaCl, 1 mM MgCl2, 5 mM KCl, 1 mM CaCl2, 0.025% Tween 20; 1 h; commercial protein; label: 5'-FAM; single-stranded DNA.

The exact form of at least one protein or probe is not confirmed.

As to “CACAGGCTACGGCACGTAGAGCATCACCATGATCCTGTG [Green PDGF aptamer 36t]”, the Kd came to 93 pM.

Source of the values: article PMC3215713.
